# Data taken from the supplement of paper PMC8728848.
# The other results are listed elsewhere or left out.
# Columns and labels:
# Assay in all cases: glycan array binding signal (z-score within array); higher = stronger binding
# Conditions in all cases: glycan notation: IUPAC condensed, linker removed
# [1] = biological target: Man(a1-2)Man(a1-3)[Man(a1-2)Man(a1-6)]Man(a1-6)[Man(a1-2)Man(a1-2)Man(a1-3)]Man
# Summary of the method: (§1)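 From the Consortium for Functional Glycomics database, 3228 arrays were curated, keeping only those whose protein sequence was available. Binding is given as a within-array Z-score averaged across arrays sharing a protein sequence and across linkers. Negative Z-scores can be read as non-binding.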
# [2] = biological target: Man(a1-2)Man(a1-3)[Man(a1-2)Man(a1-6)]Man(a1-6)[Man(a1-2)Man(a1-2)Man(a1-3)]Man(b1-4)GlcNAc(b1-4)GlcNAc
# Summary of the method: as §1
# [3] = biological target: Man(a1-2)Man(a1-3)[Man(a1-6)]Man(a1-6)[Man(a1-2)Man(a1-3)]Man(b1-4)GlcNAc(b1-4)GlcNAc
# Summary of the method: as §1
# [4] = biological target: Man(a1-2)Man(a1-6)[Man(a1-3)]Man(a1-6)[Man(a1-2)Man(a1-2)Man(a1-3)]Man
# Summary of the method: as §1
# [5] = biological target: Man(a1-2)Man(a1-6)[Man(a1-3)]Man(a1-6)[Man(a1-2)Man(a1-2)Man(a1-3)]Man(b1-4)GlcNAc(b1-4)GlcNAc
# Summary of the method: as §1
# Man(a1-3)[Man(a1-6)]Man = biological target: Man(a1-3)[Man(a1-6)]Man
# Summary of the method: as §1
# [6] = biological target: Man(a1-3)[Man(a1-6)]Man(a1-6)[Man(a1-2)Man(a1-3)]Man(b1-4)GlcNAc(b1-4)GlcNAc
# Summary of the method: as §1
# [7] = biological target: Man(a1-3)[Man(a1-6)]Man(a1-6)[Man(a1-3)]Man
# Summary of the method: as §1
# [8] = biological target: Man(a1-3)[Man(a1-6)]Man(a1-6)[Man(a1-3)]Man(b1-4)GlcNAc(b1-4)GlcNAc
# Summary of the method: as §1
# [9] = biological target: Man(a1-3)[Man(a1-6)]Man(b1-4)GlcNAc(b1-4)GlcNAc
# Summary of the method: as §1
# [10] = biological target: Man(a1-3)[Man(a1-6)]Man(b1-4)GlcNAc(b1-4)[Fuc(a1-6)]GlcNAc
# Summary of the method: as §1
# Man(a1-6)Man = biological target: Man(a1-6)Man
# Summary of the method: as §1
# Man(b1-4)GlcNAc = biological target: Man(b1-4)GlcNAc
# Summary of the method: as §1
# MurNAc(b1-4)GlcNAc = biological target: MurNAc(b1-4)GlcNAc
# Summary of the method: as §1
# Neu5Ac(a2-3)Gal = biological target: Neu5Ac(a2-3)Gal
# Summary of the method: as §1
# [11] = biological target: Neu5Ac(a2-3)Gal(b1-3)GalNAc
# Summary of the method: as §1
# [12] = biological target: Neu5Ac(a2-3)Gal(b1-3)GalNAc(b1-3)Gal(a1-4)Gal(b1-4)Glc
# Summary of the method: as §1
# [13] = biological target: Neu5Ac(a2-3)Gal(b1-3)GalNAc(b1-4)Gal(b1-4)Glc
# Summary of the method: as §1
# [14] = biological target: Neu5Ac(a2-3)Gal(b1-3)GalNAc(b1-4)[Neu5Ac(a2-3)]Gal(b1-4)Glc
# Summary of the method: as §1
# [15] = biological target: Neu5Ac(a2-3)Gal(b1-3)GalNAc(b1-4)[Neu5Ac(a2-8)Neu5Ac(a2-3)]Gal(b1-4)Glc
# Summary of the method: as §1
# [16] = biological target: Neu5Ac(a2-3)Gal(b1-3)GalNAc6S
# Summary of the method: as §1
# [17] = biological target: Neu5Ac(a2-3)Gal(b1-3)GlcNAc
# Summary of the method: as §1
# [18] = biological target: Neu5Ac(a2-3)Gal(b1-3)GlcNAc(b1-2)Man
# Summary of the method: as §1
# [19] = biological target: Neu5Ac(a2-3)Gal(b1-3)GlcNAc(b1-2)Man(a1-3)[GlcNAc(b1-4)][Neu5Ac(a2-3)Gal(b1-3)GlcNAc(b1-2)Man(a1-6)]Man(b1-4)GlcNAc(b1-4)GlcNAc
# Summary of the method: as §1
# [20] = biological target: Neu5Ac(a2-3)Gal(b1-3)GlcNAc(b1-2)Man(a1-3)[Neu5Ac(a2-3)Gal(b1-3)GlcNAc(b1-2)Man(a1-6)]Man(b1-4)GlcNAc(b1-4)GlcNAc
# Summary of the method: as §1
# [21] = biological target: Neu5Ac(a2-3)Gal(b1-3)GlcNAc(b1-2)[Neu5Ac(a2-3)Gal(b1-3)GlcNAc(b1-4)]Man(a1-6)[Neu5Ac(a2-3)Gal(b1-3)GlcNAc(b1-2)Man(a1-3)]Man(b1-4)GlcNAc(b1-4)GlcNAc
# Summary of the method: as §1
# [22] = biological target: Neu5Ac(a2-3)Gal(b1-3)GlcNAc(b1-3)Gal(b1-3)GlcNAc
# Summary of the method: as §1
# [23] = biological target: Neu5Ac(a2-3)Gal(b1-3)GlcNAc(b1-3)Gal(b1-4)GlcNAc
# Summary of the method: as §1
# [24] = biological target: Neu5Ac(a2-3)Gal(b1-3)GlcNAc(b1-3)GalNAc
# Summary of the method: as §1
# [25] = biological target: Neu5Ac(a2-3)Gal(b1-3)GlcNAc(b1-6)GalNAc
# Summary of the method: as §1
# [26] = biological target: Neu5Ac(a2-3)Gal(b1-3)GlcNAc6S
# Summary of the method: as §1
# [27] = biological target: Neu5Ac(a2-3)Gal(b1-3)[Fuc(a1-4)]GlcNAc
# Summary of the method: as §1
# [28] = biological target: Neu5Ac(a2-3)Gal(b1-3)[Fuc(a1-4)]GlcNAc(b1-3)Gal(b1-3)[Fuc(a1-4)]GlcNAc
# Summary of the method: as §1
# [29] = biological target: Neu5Ac(a2-3)Gal(b1-3)[Fuc(a1-4)]GlcNAc(b1-3)Gal(b1-4)[Fuc(a1-3)]GlcNAc
# Summary of the method: as §1
# [30] = biological target: Neu5Ac(a2-3)Gal(b1-3)[GlcNAc(b1-6)]GalNAc
# Summary of the method: as §1
# [31] = biological target: Neu5Ac(a2-3)Gal(b1-3)[Neu5Ac(a2-6)]GalNAc
# Summary of the method: as §1
# [32] = biological target: Neu5Ac(a2-3)Gal(b1-3)[Neu5Ac(a2-6)]GlcNAc(b1-3)[Fuc(a1-3)[Gal(b1-4)]GlcNAc(b1-6)]Gal(b1-4)Glc
# Summary of the method: as §1
binder,measurement,setting,value
his-Lectin-24A (Drosophila melanogaster) (protein) MFRLSVLVLNLLLVSHEFSAGTAKIEIQPLPALCNGYCFPTLKPVMEYVAIHQDKWNTCTEILANEARKDQIQLNIQLDALKADVSNIKASQLSKDEKLDRMEREQFAMHESLETINRYLTVKLDRTKLQLEAIKNTMDYMKAQMDGYFSAINGVQCLQPGFEKIGDRYFYIEEDVELNWLDAQAKCRRMGGHLASIKTKQEFDAIVEKLDDSKSYFLGVNENTKTGDFVSAASGKSCLYHEWGPGEPHHNNDQERCVSILRKLMHVGNCTYEKRFICQYGI,glycan array binding signal (z-score),[1],0.072
same,glycan array binding signal (z-score),[2],-0.614
same,glycan array binding signal (z-score),[3],-1.11
same,glycan array binding signal (z-score),[4],-0.36
same,glycan array binding signal (z-score),[5],-0.052
same,glycan array binding signal (z-score),Man(a1-3)[Man(a1-6)]Man,0.162
same,glycan array binding signal (z-score),[6],-0.205
same,glycan array binding signal (z-score),[7],-0.238
same,glycan array binding signal (z-score),[8],-0.742
same,glycan array binding signal (z-score),[9],0.594
same,glycan array binding signal (z-score),[10],0.619
same,glycan array binding signal (z-score),Man(a1-6)Man,-0.73
same,glycan array binding signal (z-score),Man(b1-4)GlcNAc,1.1
same,glycan array binding signal (z-score),MurNAc(b1-4)GlcNAc,-0.281
same,glycan array binding signal (z-score),Neu5Ac(a2-3)Gal,-1.44
same,glycan array binding signal (z-score),[11],0.679
same,glycan array binding signal (z-score),[12],0.771
same,glycan array binding signal (z-score),[13],-2.7
same,glycan array binding signal (z-score),[14],-0.129
same,glycan array binding signal (z-score),[15],-0.976
same,glycan array binding signal (z-score),[16],0.385
same,glycan array binding signal (z-score),[17],1.27
same,glycan array binding signal (z-score),[18],-0.65
same,glycan array binding signal (z-score),[19],0.319
same,glycan array binding signal (z-score),[20],-0.522
same,glycan array binding signal (z-score),[21],-0.447
same,glycan array binding signal (z-score),[22],-2.22
same,glycan array binding signal (z-score),[23],-0.473
same,glycan array binding signal (z-score),[24],0.022
same,glycan array binding signal (z-score),[25],-1.18
same,glycan array binding signal (z-score),[26],-0.858
same,glycan array binding signal (z-score),[27],-0.669
same,glycan array binding signal (z-score),[28],-0.561
same,glycan array binding signal (z-score),[29],-0.437
same,glycan array binding signal (z-score),[30],-0.036
same,glycan array binding signal (z-score),[31],-0.881
same,glycan array binding signal (z-score),[32],-0.346

# Some of the entries above in a different format.
binder	measurement	setting	value
his-Lectin-24A (Drosophila melanogaster) (protein) MFRLSVLVLNLLLVSHEFSAGTAKIEIQPLPALCNGYCFPTLKPVMEYVAIHQDKWNTCTEILANEARKDQIQLNIQLDALKADVSNIKASQLSKDEKLDRMEREQFAMHESLETINRYLTVKLDRTKLQLEAIKNTMDYMKAQMDGYFSAINGVQCLQPGFEKIGDRYFYIEEDVELNWLDAQAKCRRMGGHLASIKTKQEFDAIVEKLDDSKSYFLGVNENTKTGDFVSAASGKSCLYHEWGPGEPHHNNDQERCVSILRKLMHVGNCTYEKRFICQYGI	glycan array binding signal (z-score)	[3]	-1.11
same	glycan array binding signal (z-score)	Man(b1-4)GlcNAc	1.1
same	glycan array binding signal (z-score)	[31]	-0.881
